From patent US20040010116A1, “Minicell display and products therefrom” (Children's Medical Center Corp., priority 2002, published 2004)
At least one peptide structure holds a part that was inferred or is arguable (an end, a ring closure or a residue). Where no end group is shown, it is not given here.

Columns and labels:
[1] = test system: invasion complex of metastatic tumor cells; test: Targeting of invasion complex and apoptosis of metastatic tumor cells; assay type: cell-based
[2] = Chemotaxis and haptotaxis to OPN, fibronectin, thrombospondin, laminin and chemokines; assay type: cell-based
sub-set of macrophages = test: Cell migration; assay type: cell-based
MDA-MB-231 xenografts = test: Tumor growth in tumor bearing animals (xenografts); assay type: in vivo, nude mice
[3] = test system: Nitric Oxide (NO) and superoxide; test: Production of Nitric Oxide (NO) and superoxide; assay type: cell-based; settings: leading to cytotoxic peroxynitrile, tyrosine nitration
[4] = test system: eosinophils, neutophils, epithelial or mesenchymal cells; test: Cell migration; assay type: cell-based

Ac-DKMLDP [SEQ ID NO: 54, DKMLDP]
Specificity of the resulting apoptosis [1]: specific to tumor cells
Targeting of the invasion complex ([1]; metastatic tumor cells): specifically targets the invasion complex of metastatic tumor cells
Chemotaxis and haptotaxis [2]: inhibits chemotaxis and haptotaxis
Migration of a sub-set of macrophages (sub-set of macrophages): inhibited
Gross effect on tumor growth (macroscopic observation of tumor site) (MDA-MB-231 xenografts; four weeks post implant, treated vs matched untreated animal): the tumor was gone
Cell influx into the tumor after treatment (MDA-MB-231 xenografts; tumor bearing animals): influx of granulocyte cells into the tumor
Histopathology of treated tumor tissue: resident macrophages (MDA-MB-231 xenografts; versus untreated controls): recruitment and activation of resident macrophages
Histopathology of treated tumor tissue: tumor cells (MDA-MB-231 xenografts; versus untreated controls): regression of tumor cells
Production of Nitric Oxide (NO) and superoxide [3]: induces the production of Nitric Oxide (NO) and superoxide
Migration of eosinophils, neutophils, epithelial or mesenchymal cells [4]: no effect
